This is an account of results in PMC9683845.

The chains behind the UniProt entries cited, without tags or fusion partners. Where a name states a change or a piece, a line headed by the entry shows the natural chain unless it says otherwise.
UniProt P35222: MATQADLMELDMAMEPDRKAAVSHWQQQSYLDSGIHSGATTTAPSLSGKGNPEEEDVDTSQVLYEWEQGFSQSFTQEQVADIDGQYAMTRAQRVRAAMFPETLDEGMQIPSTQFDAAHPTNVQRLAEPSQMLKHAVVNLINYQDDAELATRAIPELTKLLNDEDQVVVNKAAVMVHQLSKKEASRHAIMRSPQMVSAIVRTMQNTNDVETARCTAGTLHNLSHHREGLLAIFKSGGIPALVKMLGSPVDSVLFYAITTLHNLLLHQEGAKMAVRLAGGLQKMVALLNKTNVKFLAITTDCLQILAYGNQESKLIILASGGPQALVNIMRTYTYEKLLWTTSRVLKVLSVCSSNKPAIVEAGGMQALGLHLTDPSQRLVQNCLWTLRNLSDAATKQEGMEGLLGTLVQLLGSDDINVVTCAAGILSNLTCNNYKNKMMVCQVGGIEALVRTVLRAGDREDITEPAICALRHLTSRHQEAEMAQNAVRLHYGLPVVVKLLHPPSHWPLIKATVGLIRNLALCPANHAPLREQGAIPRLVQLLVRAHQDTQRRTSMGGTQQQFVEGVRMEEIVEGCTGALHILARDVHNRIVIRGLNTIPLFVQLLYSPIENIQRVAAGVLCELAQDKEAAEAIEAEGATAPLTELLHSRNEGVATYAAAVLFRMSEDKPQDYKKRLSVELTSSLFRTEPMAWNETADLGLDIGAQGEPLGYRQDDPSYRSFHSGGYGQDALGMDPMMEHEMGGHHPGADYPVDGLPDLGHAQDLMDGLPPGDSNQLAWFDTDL

These are yes or no findings as the source states them, for the method shown. Binding seen in cells or lysates may run through a third protein. Some results given as binding are weak or reduced against the parent protein; the word gives no strength.

The target in one test is T1, SATB1 (UniProt Q01826).
T1 sequence: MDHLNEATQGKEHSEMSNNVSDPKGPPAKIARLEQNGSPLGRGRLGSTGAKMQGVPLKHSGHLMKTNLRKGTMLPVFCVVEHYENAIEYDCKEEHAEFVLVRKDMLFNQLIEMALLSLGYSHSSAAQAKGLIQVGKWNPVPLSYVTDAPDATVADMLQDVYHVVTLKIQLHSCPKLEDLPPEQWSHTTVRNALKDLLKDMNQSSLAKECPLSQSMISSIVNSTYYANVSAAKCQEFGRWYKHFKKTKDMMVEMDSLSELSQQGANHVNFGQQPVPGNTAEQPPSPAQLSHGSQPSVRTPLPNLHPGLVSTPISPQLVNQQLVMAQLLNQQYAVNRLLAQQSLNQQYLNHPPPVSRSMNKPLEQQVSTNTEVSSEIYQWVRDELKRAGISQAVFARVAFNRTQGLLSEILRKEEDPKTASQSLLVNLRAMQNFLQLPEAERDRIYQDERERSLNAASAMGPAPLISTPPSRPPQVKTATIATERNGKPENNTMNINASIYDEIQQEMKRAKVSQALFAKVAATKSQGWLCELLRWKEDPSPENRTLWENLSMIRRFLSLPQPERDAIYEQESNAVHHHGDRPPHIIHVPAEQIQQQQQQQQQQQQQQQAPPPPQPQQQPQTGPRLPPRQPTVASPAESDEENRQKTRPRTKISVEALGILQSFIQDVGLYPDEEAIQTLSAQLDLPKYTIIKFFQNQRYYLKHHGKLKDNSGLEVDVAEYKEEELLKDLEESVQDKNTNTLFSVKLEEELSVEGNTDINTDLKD
Briefly: co-IP; HEK 293T cells overexpressing VP-16 fused regions of β-catenin; anti-SATB1, WB with anti-β-catenin.

The next test concerns the target GST-β-catenin (UniProt P35222). Briefly: pull-down; in vitro pulldown; GST-β-catenin or control GST immobilized, incubated with 35S-labeled SATB1; only the target purified.

“VP-16 fused C-terminal region of β-catenin (aa 666–780) (from UniProt P35222 666-780) (domain or fragment)”: the binding result in the test with SATB1 is given as “binds”. As for “VP-16 fused N-terminal region of β-catenin (aa 1–137) (from UniProt P35222 1-137) (domain or fragment)”, the binding entry with SATB1 was “no binding”.

B1: 35S-labeled SATB1 (protein, UniProt Q01826 1-763)
chain: T1 sequence
modifications: 35S label
B1: the binding entry with GST-β-catenin is “binds”.
